± gives the standard deviation of the averaged measurements. This is one part of the list. These are raw signals, not scaled to a control.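 A neuron, microglia and astrocyte co-culture models inflammatory neurodegeneration: bacterial LPS drives microglia-dependent neuron loss. Each compound was tested against DMSO vehicle wells on the same plates; BAY61-3606, a SYK inhibitor, was the reference neuroprotective control.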
Test system: rat primary cerebellar neuron-glia coculture
Experiment: median microglial FormFactor (circularity) per image (dimensionless (0-1)); higher = rounder, more ameboid microglia
Conditions: LPS 0 ng/mL; 1 µM; treatment time 3 days

SMILES	median microglial FormFactor
CCOc1ccccc1N1CCN(Cc2cccc3ccccc23)CC1	0.552 ± 0.1
Cc1cccc([C@H](C)c2c[nH]cn2)c1C	0.598 ± 0.078
OC1(c2ccc(Cl)cc2)c2ccccc2C2=NCCN21 (stereo unspecified)	0.574 ± 0.063
Clc1ccc(OC[C@H]2CCN2)cn1	0.572 ± 0.072
O=[N+]([O-])/N=C1\NCCN1Cc1ccc(Cl)nc1	0.528 ± 0.12
C[N+]1(C)[C@@H]2C[C@@H](OC(=O)[C@H](CO)c3ccccc3)C[C@H]1[C@@H]1O[C@@H]12	0.563 ± 0.11
Clc1ccc2c(c1Cl)CNCC2	0.545 ± 0.1
C[C@]12CC[C@H](O)C[C@H]1CC[C@@H]1[C@@H]2CC[C@]2(C)[C@@H](C3=CC(=O)OC3)CC[C@]12O	0.539 ± 0.069
Cc1cccc(NC(=O)N[C@@H]2N=C(c3ccccc3)c3ccccc3N(C)C2=O)c1	0.511 ± 0.11
Cn1c(CCCC(=O)O)nc2cc(N(CCCl)CCCl)ccc21	0.511 ± 0.12
CN/C(=N\S(=O)(=O)c1ccc(Cl)cc1)N1CC(c2ccccc2)C(c2ccc(Cl)cc2)=N1 (stereo unspecified)	0.556 ± 0.089
NCCc1cc(I)c(Oc2ccc(O)c(I)c2)c(I)c1	0.604 ± 0.091
O=C(NC1CN2CCC1CC2)c1cc(Br)cc2nc[nH]c12 (stereo unspecified)	0.539 ± 0.061
O=C1NC(=O)N(c2cccc3ccccc23)C(=O)/C1=C\c1c[nH]c2ccccc12	0.536 ± 0.055
CN(C)C(=O)Oc1ccc2cc(Br)ccc2c1Br	0.554 ± 0.072
COc1ccc2c(c[n+](C)c3c4cc5c(cc4ccc23)OCO5)c1OC	0.558 ± 0.097
c1ccc(CCCN2CCN(CCOC(c3ccccc3)c3ccccc3)CC2)cc1	0.427 ± 0.066
C[C@@H]1CN([C@H]2CC[C@](C#N)(c3ccc(F)cc3)CC2)CC[C@]1(C(=O)O)c1ccccc1	0.554 ± 0.091
N#Cc1nn(-c2c(Cl)cc(C(F)(F)F)cc2Cl)c(N)c1[S+]([O-])C(F)(F)F (stereo unspecified)	0.577 ± 0.068
O=C(O[C@H]1C[N+]2(CCCOc3ccccc3)CCC1CC2)C(O)(c1cccs1)c1cccs1	0.56 ± 0.07
O=C1CCCC2[C@H]3CNC[C@H](C3)CN12 (stereo partly specified)	0.546 ± 0.093
C=CCN(CC=C)CCc1c[nH]c2ccc(OC)cc12	0.551 ± 0.081
C[N+]1(C)CCO[C@@](O)(c2ccc(-c3ccc([C@@]4(O)C[N+](C)(C)CCO4)cc3)cc2)C1	0.533 ± 0.093
CCNC(=O)C[C@@H]1N=C(c2ccc(Cl)cc2)c2cc(OC)ccc2-n2c(C)nnc21	0.601 ± 0.044
O=C(c1ccccc1)C(F)(F)F	0.551 ± 0.087
C=C(C)[C@H]1Cc2c(ccc3c2O[C@@H]2COc4cc(OC)c(OC)cc4[C@@H]2C3=O)O1	0.594 ± 0.048

Sorted by molecular weight (ascending): part of the list above
SMILES	median microglial FormFactor
OC1(c2ccc(Cl)cc2)c2ccccc2C2=NCCN21 (stereo unspecified)	0.574 ± 0.063
Cn1c(CCCC(=O)O)nc2cc(N(CCCl)CCCl)ccc21	0.511 ± 0.12
CN(C)C(=O)Oc1ccc2cc(Br)ccc2c1Br	0.554 ± 0.072
O=C1NC(=O)N(c2cccc3ccccc23)C(=O)/C1=C\c1c[nH]c2ccccc12	0.536 ± 0.055
C=C(C)[C@H]1Cc2c(ccc3c2O[C@@H]2COc4cc(OC)c(OC)cc4[C@@H]2C3=O)O1	0.594 ± 0.048
c1ccc(CCCN2CCN(CCOC(c3ccccc3)c3ccccc3)CC2)cc1	0.427 ± 0.066

Source: the supplement of paper PMC10973195
